# Screening data

From PubChem BioAssay record AID1159506 (NCATS, 2015).

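Genome-wide siRNA knockdown in TC32 Ewing sarcoma cells, comparing luciferase light from an NR0B1-promoter reporter with a CMV-promoter reporter 48 hours after transfection.
Each siRNA was applied at 20 nM.
A z-score of the log NR0B1-over-CMV signal, less the median of siRNAs with the same seed; more negative means a stronger specific loss of the NR0B1 reporter.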

This is part of the screen; most of the strongest results are not listed here.
Sequences are the guide (antisense) strand, without overhang.

siRNA | target gene | seed-corrected z-score
AAUGUUCAUCUCAUCAUCC | PDE1B | 0.679
UUUGCACAUACAGCACUCC | OR13D1 | 1.473
UGUUUGAUGAGAUCCUCCG | TRABD2A | 0.8682
UAAUAGACACUAACCAACC | POLR1B | -0.1736
UACAUAGGCGGACUGGUCC | NXF2B | 0.5124
UGAAGUCGAACUCAGAUCC | PTCH1 | -0.6554
UCACCUGUCUGUUACGUUC | MEF2C | -0.9171
UAGCGGUCAACCGUGAGCA | GPR142 | -1.445
UCUGUAGGCACCGUGAUGG | C3orf18 | 0.2856
UAACGUAAGUUGGUGUUUC | DLG1 | 0.1954
UAUUGUUGUACUUCUCCCA | EDDM3A | 0.6195
UGUCCUAAUAUGAAGAACU | MRPL33 | 0.8718
UAGAUGUCCAUUAAUGUAC | INTS5 | -0.2402
UCGGGAGCAAGAUGAUAGC | BDP1 | 0.9866
UCUCGAUUUACUGAGGAUG | DHX29 | 0.445
UUACGGUCAGAGAUUGAGG | CCDC9 | 1.171
UCAAGAAUAAAGUUCCUCU | HNRNPUL2 | 0.157
UUUGAUGAAAUGCUGAUCC | SPG20 | -0.0255
UUACUAAUAAUUAAGCCCG | ZNF248 | -0.4418
UGGGUAUACAUUCCGAUCG | SGCE | -1.568
UACUUGAUCACCUCAGUCC | CPNE2 | -0.5331
ACAUGGAUGAGUAGAUUAC | FGF14 | 1.688
UUUACGCACAGGGAAGAAA | RANGRF | 0.3185
AUAGGAUACACGGAUAUAC | TRPM1 | 0.1582
AAUCUAAGUAGAGUCCUUC | ABHD13 | 1.071
UGAGCUUUAAUUGCACCAC | LINC01242 | -0.1999
AAAUCGGUCAGUUUCAUCC | PRKCB | -0.1956
AAACCAAUAACACCAAGUC | APOO | 0.9068
AGUUUAACCAGCCCUGUCU | BRSK1 | -0.4335
UAAUAGUCUAGGUCAUAGG | GPR1 | -0.7433
AGCUUUACAAUCUUCUAUC | MACF1 | 0.2966
AAUGUUUAAUUUUUCUGCC | AK9 | -0.5334
UUCGCGAUACGUGUUUAGG | EXD1 | -1.022
UCUCUUUGCAGAUCUGUCC | CETP | -0.78
UUUCCAUACAGUCUGACCG | TBCC | 0.5912
UUUGCAACUAGCACCAGGG | GOPC | -0.0929
UAGCAUACGAGAGUUCUAC | HNRNPU | -0.618
UCAGGUACUCUUAAGAAGG | SLC2A4 | 0.01547
UUAGUGCUGAGUAAACUGU | KLF11 | 0.4785
UCAGAGACUCCAAGUAUCC | BCAR3 | 0.6869
UUCCUCAUCACCCUUCUCG | POPDC2 | -0.1252
UAAGAGGUGACAAUCAGAG | OR10P1 | -1.873
AUACCGUUCAUAUUGGUAC | IRX6 | 0.2775
UAAGCUGAUUUUGCAGGGC | LUZP2 | -0.1142
UCGAGUUGCAAGUUGCUUC | WDR11 | -0.7565
UUUGCUGUGAUAUCAACCA | MAU2 | 2.598
UCCUGAAAAAGCCUCAGGC | ZNF852 | 0.1371
UCAUGGAUAGGAGCUGCAG | DKKL1 | -0.413
AAUUUGGUCAUUACAUUGG | ATP11AUN | -0.9054
AAAGUCAAGGUCCAUGACG | GNB1L | -0.5935
UUAAUUGCUCCCGAUAUAG | ASXL3 | -0.089
AAAAGGGAUGCGGUUGCGG | TGFBR3L | 0.9301
AGAGUAGACAGACAGUGCC | PRSS37 | -0.6353
UUUGGUACACGCAGGAAGG | NR4A3 | -1.149
UUACAAAUAGCGGCAUAGC | OR5AU1 | 0.4356
UUCCUCCUCAUACCUCUUC | KRT71 | -0.03661
UUCGCGGAAGGUAAGAGGG | LOC643355 | -0.08779
UGCACAUCCAUGCAAAAGC | ADGRL4 | -0.5926
UAUUUGCCCUCAGUAGCUC | DIXDC1 | 0.1486
UUCGGAUGAAAGAAUGGGC | ZNF462 | 0.008342
UGAGUAUAAAACACUAUGA | ANKRD65 | -0.00326
UUUCCGGUAAGGGUUCAGG | SETD2 | 0.374
UGUCUCUUGGAAGCAGUGU | SMR3B | 0.9051
UCUUCUCUAAUAUCGAUAC | HESX1 | -0.6136
UCGGGAUAGGAGUAGGUGC | RFX1 | -0.5239
UCUAGUAUCAAUGCGCUCC | HSPA5 | -0.6826
UGAUGAUAUAUGUUAGCUC | STX5 | -1.995
UUUUAUAUCACAUUCGUUC | PIGY | 0.7731

The first 5 entries again:

siRNA,target gene,seed-corrected z-score
AAUGUUCAUCUCAUCAUCC,PDE1B,0.679
UUUGCACAUACAGCACUCC,OR13D1,1.473
UGUUUGAUGAGAUCCUCCG,TRABD2A,0.8682
UAAUAGACACUAACCAACC,POLR1B,-0.1736
UACAUAGGCGGACUGGUCC,NXF2B,0.5124